{"source": "PubChem BioAssay AID590", "about": "(National Center for Advancing Translational Sciences (NCATS), 2007)", "note": "In all, about 59,000 compounds went through this assay and about 6,500 (11%) were called active. These results got no clear call from the source, so the numbers are uncertain. No stated cut-off is given here; in the data, active means max dye-equivalent concentration above about 10 nM; inconclusive means mostly about 1.1 nM to 9.6 nM; inactive means weaker than that."}
{"assay": "qHTS Assay for Spectroscopic Profiling in A350 Spectral Region", "settings": "Compound autofluorescence, 340/450 nm, Alexa 350 dye-equivalents; stronger effect = higher value", "from_the_text": "NIH Molecular Libraries Screening Centers Network [MLSCN]\nNIH Chemical Genomics Center [NCGC]\nOccasionally, the artifactual effect may originate from the compounds own spectral or other biophysical properties which generally tend to track its assay concentration. Pre-screening/profiling the library with respect to the compounds spectral properties should help one exclude false positives early on. While the most informative fluorescent profiling data set is obtained by performing a full excitation and emission scan of each well by using a monochromator-based plate reader, such an approach is practical only on a very limited scale as scanning each well requires long time. An alternative approach, applied here, is to perform plate reader scans using selected excitation and emission wavelength pairs to generate a multidimensional relational database that correlates compound concentration and the respective relative fluorescence intensity at a given wavelength set. A standard curve of Alexa 350 (A 350) present on each plate as six-point concentration series, was used to compute a normalized fluorescence response, termed dye-equivalent concentration, for each compound at each concentration.\nNCGC Assay Protocol Summary:\n100 mM Tris buffer, pH 8.0 […]"}
{"compound": "CN(C)CCOC(=O)C(O)(c1ccccc1)C1CCCCC1", "note": "(stereo unspecified)", "max dye-equivalent concentration": "inconclusive: 1.8 nM"}
